PubChem BioAssay AID1508597 – Cure First, 2020
Purpose: 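Survival screen with siRNA in ovarian cancer cells derived from patients, with or without rucaparib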 (primary screen). Cells: human ovarian carcinoma lines grown from tumours: OCI-P5x (papillary serous) and OCI-C5x (clear cell). Reagent: siRNA pool against human genes, 1.25 pmol siRNA per well. Timing: 72 h or 96 h, depending on the cell culture. Treatment: rucaparib 20 µM (about IC30) or vehicle, present until read-out. Rucaparib or vehicle: Rucaparib. Cell line: OCI-P5x (serous). Read-out: 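Luminescent ATP-based viability assay read 72 or 96 h after transfection, depending on culture, given as normalised percent viability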. Reading the numbers: viability, normalised: higher = more viable cells remaining. Rule for the call: 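Active when normalised viability falls below 80 percent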. Calls: active = viability under 80%; inactive = viability 80% or more.
This is an unselected part of the about 2,100 reagents, in one setting of the screen. 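Calls flag viability under 80% in either arm, not effects specific to rucaparib; the reference for percent is not stated.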 Entries without a mark were called inactive. Some reagents were tested in more than one well and are listed for each. Reagent sequences are not shown. Not stated in the record: the 100% reference.

SGK1, technical replicate 1 | viability, normalised (%): 106
SGK1, technical replicate 2 | viability, normalised (%): 103
SGK1, technical replicate 3 | viability, normalised (%): 85.7
MAP3K13, technical replicate 1 | viability, normalised (%): 67 (active)
MAP3K13, technical replicate 1 | viability, normalised (%): 91.1
MAP3K13, technical replicate 2 | viability, normalised (%): 87.6
MAP3K13, technical replicate 2 | viability, normalised (%): 73.4 (active)
MAP3K13, technical replicate 3 | viability, normalised (%): 57.2 (active)
MAP3K13, technical replicate 3 | viability, normalised (%): 95.7
TAF10, technical replicate 1 | viability, normalised (%): 42.7 (active)
TAF10, technical replicate 2 | viability, normalised (%): 32.9 (active)
TAF10, technical replicate 3 | viability, normalised (%): 48.4 (active)
TRDMT1, technical replicate 1 | viability, normalised (%): 76.3 (active)
TRDMT1, technical replicate 2 | viability, normalised (%): 75.5 (active)
TRDMT1, technical replicate 3 | viability, normalised (%): 62.9 (active)
SIRT6, technical replicate 1 | viability, normalised (%): 53.6 (active)
SIRT6, technical replicate 1 | viability, normalised (%): 89.3
SIRT6, technical replicate 2 | viability, normalised (%): 64.4 (active)
SIRT6, technical replicate 2 | viability, normalised (%): 101
SIRT6, technical replicate 3 | viability, normalised (%): 50.1 (active)
SIRT6, technical replicate 3 | viability, normalised (%): 86.8

2 of these entries, set out differently:
{"Gene":"MAP3K13","technical replicate":"1","viability, normalised (%)":"67 (active)"}
{"Gene":"MAP3K13","technical replicate":"1","viability, normalised (%)":91.1}
